No constants are given. Whether binding was seen depends on the method and setting. Some entries that bind do so weakly or less than the wild type.
How the values were obtained:
[1] = biological target: 200 kD Cry1A toxin-binding protein of P. gossypiella BBMV (native BT-R2) (Pectinophora gossypiella); experiment: ligand blot of PBW BBMV proteins
[2] = biological target: 200 kD Cry1A toxin-binding protein of P. gossypiella BBMV (native BT-R2) (Pectinophora gossypiella); experiment: radioligand blot of BBMV proteins
[3] = biological target: T1, PBW-866 expressed protein (BT-R2 aa 1210-1496), 32 kD (Pectinophora gossypiella); experiment: competition ligand blot
T1 sequence: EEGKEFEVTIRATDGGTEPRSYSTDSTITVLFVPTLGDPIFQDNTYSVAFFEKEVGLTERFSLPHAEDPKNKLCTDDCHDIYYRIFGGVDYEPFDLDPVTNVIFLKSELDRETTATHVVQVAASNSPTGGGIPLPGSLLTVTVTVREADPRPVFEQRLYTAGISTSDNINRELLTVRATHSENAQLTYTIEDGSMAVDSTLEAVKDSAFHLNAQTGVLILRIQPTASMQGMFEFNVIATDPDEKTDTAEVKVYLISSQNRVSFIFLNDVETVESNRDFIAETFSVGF

By UniProt entry, the sequences of proteins in these tests, tags left out. Residues count along the entry.
UniProt P0A366, residues 29-619: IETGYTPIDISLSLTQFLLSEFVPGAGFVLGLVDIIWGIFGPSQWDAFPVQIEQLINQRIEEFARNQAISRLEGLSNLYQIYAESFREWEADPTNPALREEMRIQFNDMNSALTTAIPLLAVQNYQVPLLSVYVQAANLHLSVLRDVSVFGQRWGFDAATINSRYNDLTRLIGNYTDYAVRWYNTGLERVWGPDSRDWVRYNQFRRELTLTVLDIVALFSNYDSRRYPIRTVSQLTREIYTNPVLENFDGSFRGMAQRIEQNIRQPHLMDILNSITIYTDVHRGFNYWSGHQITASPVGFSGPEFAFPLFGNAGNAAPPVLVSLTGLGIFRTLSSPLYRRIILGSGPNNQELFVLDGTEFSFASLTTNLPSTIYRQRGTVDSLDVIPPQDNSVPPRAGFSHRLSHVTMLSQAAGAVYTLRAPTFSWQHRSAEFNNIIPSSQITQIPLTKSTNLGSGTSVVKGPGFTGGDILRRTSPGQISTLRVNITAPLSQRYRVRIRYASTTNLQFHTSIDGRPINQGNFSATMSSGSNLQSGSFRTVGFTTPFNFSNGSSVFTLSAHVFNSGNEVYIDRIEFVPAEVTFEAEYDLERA

[4] = biological target: T1, PBW-866 expressed protein (BT-R2 aa 1210-1496), 32 kD (Pectinophora gossypiella); experiment: ligand blot of E. coli-expressed fragment
[5] = biological target: PBW-1269-1367, minimum binding fragment of BT-R2 (aa 1269-1367) (Pectinophora gossypiella); experiment: truncation fragments tested for toxin binding
[6] = biological target: PBW-1269-1367, minimum binding fragment of BT-R2 (aa 1269-1367) (Pectinophora gossypiella); experiment: truncation peptides tested for toxin binding (FIG. 4)
[7] = biological target: T1, PBW-866 expressed protein (BT-R2 aa 1210-1496), 32 kD (Pectinophora gossypiella); experiment: blot incubated with Cry1Ab toxin, then antiserum to the toxin
[8] = biological target: 200 kD Cry1A toxin-binding protein of P. gossypiella BBMV (native BT-R2) (Pectinophora gossypiella); experiment: two-dimensional gel of the electroeluted 200 kD band, ligand blot
[9] = biological target: Full-length PBW BT-R2 expressed in COS-7 cells (Pectinophora gossypiella); experiment: immunofluorescent labeling of transfected COS-7 cells with Cry1Ab antibodies
[10] = biological target: 200 kD Cry1A toxin-binding protein of P. gossypiella BBMV (native BT-R2) (Pectinophora gossypiella); experiment: immunoprecipitation of BBMV proteins with anti-Cry1Ab antiserum, then ligand blot
[11] = biological target: 200 kD Cry1A toxin-binding protein of P. gossypiella BBMV (native BT-R2) (Pectinophora gossypiella); experiment: immunoprecipitation with Cry1Ab and anti-toxin-protein A-Sepharose, then radioligand blot and Western blot

Measured: binding

Cry1Aa toxin (trypsinized 60 kD toxin) (from UniProt P0A366 29-619) (ligand)
binds: [1] | [2]

Cry1Ab toxin (trypsinized 60 kD toxin) (from UniProt P0A370 29-620) (ligand)
binds: all assays above

— patent publication US7094554
